Source: article PMC10244618
No constants are given. Whether binding was seen depends on the method and setting.

By UniProt entry, the sequences of proteins in these tests, tags left out. Where a name states a change or a piece, a line headed by the entry shows the natural chain unless it says otherwise. Chains listed by the source or under a name are the forms on record and can include a tag or linker. Residues count along the entry.
NF2 C-terminal half of isoform 1 (AA M308-595) (P35240, residues 308-595): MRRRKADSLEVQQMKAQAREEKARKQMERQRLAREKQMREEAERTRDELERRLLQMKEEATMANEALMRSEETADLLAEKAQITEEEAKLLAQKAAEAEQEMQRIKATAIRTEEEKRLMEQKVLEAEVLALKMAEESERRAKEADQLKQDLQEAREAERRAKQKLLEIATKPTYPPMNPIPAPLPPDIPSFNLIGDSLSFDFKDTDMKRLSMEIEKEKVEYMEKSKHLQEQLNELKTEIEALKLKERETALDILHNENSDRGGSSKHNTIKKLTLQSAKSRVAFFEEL
NF2 C-terminal half of isoform 7 (AA M225-507) (P35240-4, form named): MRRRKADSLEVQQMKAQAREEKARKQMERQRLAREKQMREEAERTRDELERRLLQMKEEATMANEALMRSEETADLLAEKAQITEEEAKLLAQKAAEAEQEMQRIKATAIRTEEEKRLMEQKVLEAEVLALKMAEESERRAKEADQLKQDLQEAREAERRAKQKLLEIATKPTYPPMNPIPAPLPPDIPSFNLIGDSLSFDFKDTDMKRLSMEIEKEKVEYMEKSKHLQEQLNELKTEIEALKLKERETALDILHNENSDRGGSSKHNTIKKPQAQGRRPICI
UniProt Q9Y6C2: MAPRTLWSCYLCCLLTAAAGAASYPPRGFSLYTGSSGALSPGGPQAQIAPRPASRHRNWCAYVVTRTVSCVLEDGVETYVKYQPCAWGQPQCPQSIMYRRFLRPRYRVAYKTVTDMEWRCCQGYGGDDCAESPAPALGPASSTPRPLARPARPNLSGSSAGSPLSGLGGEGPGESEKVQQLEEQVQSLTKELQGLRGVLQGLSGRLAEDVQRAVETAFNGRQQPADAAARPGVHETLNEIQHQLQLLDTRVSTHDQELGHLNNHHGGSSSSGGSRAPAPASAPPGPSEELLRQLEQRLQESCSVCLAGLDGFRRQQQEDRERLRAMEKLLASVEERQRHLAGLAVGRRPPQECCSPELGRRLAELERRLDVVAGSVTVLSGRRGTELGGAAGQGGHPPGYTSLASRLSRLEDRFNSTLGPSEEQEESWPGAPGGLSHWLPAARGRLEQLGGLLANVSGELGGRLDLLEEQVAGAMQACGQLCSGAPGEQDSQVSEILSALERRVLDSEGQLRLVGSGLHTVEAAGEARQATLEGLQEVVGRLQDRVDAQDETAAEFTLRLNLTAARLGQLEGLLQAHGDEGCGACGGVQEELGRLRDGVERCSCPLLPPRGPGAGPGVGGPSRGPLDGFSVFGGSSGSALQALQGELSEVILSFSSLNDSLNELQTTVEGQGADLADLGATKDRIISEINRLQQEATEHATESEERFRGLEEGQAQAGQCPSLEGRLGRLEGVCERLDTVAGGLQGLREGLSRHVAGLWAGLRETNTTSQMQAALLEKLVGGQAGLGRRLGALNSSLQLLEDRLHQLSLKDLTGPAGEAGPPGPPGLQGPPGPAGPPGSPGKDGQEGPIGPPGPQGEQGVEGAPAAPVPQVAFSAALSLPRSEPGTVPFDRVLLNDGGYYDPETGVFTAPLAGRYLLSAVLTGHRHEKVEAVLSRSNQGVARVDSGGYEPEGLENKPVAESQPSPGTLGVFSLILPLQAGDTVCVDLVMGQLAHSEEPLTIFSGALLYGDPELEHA

biological target: NF2 isoform 1 with an exon 16 derived C-terminus (human) (UniProt P35240); experiment: two-hybrid; Y2H colony matrix (Fig 1B): NF2 constructs as bait, partners as prey; growth of diploid yeast on selective agar; each pair tested with active tyrosine kinase ABL2 and with kinase-dead ABL2KD (K35M) co-expressed

binding, no binding:
NF2 C-terminal half of isoform 1 (AA M308-595) (from UniProt P35240-1 308-595) (domain or fragment)
NF2 C-terminal half of isoform 7 (AA M225-507) (from UniProt P35240-4 225-507) (domain or fragment)
elastin microfibril interfacer 1 protein (from UniProt Q9Y6C2 1-1016)
phosphoinositide-3-kinase regulatory subunit 3 (from UniProt Q92569 1-461)
